Source: the supplement of paper PMC10849652
Some of the results follow.

The chains behind the UniProt entries cited, without tags or fusion partners. Where a name states a change or a piece, a line headed by the entry shows the natural chain unless it says otherwise.
UniProt Q8N4C8: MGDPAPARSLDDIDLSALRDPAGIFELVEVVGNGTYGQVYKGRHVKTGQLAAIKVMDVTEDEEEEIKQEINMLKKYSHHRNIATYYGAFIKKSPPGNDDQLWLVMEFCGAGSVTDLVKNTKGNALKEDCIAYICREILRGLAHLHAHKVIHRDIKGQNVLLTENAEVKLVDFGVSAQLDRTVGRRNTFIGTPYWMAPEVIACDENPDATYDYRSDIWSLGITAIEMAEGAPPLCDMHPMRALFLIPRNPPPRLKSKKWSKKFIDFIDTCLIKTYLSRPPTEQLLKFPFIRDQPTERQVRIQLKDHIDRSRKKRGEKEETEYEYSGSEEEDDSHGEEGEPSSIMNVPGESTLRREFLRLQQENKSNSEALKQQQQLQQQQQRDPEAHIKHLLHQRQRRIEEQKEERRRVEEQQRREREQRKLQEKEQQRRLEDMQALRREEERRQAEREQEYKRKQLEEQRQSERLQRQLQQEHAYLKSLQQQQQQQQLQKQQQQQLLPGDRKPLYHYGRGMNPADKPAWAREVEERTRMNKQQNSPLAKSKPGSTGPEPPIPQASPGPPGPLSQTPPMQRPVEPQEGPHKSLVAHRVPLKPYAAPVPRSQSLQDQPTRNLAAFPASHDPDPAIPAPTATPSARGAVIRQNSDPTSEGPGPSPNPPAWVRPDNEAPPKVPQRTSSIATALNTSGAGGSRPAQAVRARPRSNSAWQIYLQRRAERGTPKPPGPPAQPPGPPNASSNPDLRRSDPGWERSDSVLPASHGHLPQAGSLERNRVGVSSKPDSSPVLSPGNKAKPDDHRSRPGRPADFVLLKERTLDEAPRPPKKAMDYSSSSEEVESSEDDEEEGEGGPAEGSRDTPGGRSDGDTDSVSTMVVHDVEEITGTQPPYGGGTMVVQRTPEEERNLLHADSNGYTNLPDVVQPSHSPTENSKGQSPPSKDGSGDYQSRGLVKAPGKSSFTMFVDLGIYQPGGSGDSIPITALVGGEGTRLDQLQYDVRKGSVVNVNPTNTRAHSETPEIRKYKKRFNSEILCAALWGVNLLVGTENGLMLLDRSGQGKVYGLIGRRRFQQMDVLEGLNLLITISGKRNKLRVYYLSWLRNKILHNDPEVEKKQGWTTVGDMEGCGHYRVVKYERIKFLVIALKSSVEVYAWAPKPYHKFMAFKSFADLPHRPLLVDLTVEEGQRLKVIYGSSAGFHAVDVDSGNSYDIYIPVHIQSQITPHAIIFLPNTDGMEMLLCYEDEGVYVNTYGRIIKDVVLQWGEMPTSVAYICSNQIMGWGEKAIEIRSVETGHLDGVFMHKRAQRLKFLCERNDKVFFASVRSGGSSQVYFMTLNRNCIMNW
UniProt P14174: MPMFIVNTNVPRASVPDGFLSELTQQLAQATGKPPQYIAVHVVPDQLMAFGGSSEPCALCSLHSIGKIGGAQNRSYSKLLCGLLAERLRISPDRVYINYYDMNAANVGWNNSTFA
UniProt Q5TGZ0: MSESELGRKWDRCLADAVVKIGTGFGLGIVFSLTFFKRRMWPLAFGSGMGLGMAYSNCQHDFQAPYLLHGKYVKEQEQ
UniProt Q9BQP7: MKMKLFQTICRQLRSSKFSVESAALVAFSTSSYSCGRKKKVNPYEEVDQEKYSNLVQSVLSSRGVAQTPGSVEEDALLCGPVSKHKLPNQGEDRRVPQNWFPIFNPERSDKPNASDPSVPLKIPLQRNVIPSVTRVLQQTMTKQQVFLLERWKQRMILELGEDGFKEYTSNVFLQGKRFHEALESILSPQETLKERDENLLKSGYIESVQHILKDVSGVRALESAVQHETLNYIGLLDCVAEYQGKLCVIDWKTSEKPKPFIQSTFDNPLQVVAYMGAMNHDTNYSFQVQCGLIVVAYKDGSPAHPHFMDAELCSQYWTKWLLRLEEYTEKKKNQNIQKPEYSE
UniProt Q9HC36: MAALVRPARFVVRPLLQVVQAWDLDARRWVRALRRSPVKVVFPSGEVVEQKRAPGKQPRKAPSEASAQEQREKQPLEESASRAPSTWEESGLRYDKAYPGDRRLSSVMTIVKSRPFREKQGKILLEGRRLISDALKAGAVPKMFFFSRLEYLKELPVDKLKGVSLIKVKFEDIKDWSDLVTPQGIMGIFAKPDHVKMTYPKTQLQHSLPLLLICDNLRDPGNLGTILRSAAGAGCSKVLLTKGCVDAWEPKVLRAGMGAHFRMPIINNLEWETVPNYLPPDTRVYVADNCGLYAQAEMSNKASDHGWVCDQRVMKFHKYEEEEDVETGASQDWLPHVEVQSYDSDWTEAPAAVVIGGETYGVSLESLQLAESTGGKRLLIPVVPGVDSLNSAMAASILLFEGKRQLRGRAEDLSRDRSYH
UniProt O00566: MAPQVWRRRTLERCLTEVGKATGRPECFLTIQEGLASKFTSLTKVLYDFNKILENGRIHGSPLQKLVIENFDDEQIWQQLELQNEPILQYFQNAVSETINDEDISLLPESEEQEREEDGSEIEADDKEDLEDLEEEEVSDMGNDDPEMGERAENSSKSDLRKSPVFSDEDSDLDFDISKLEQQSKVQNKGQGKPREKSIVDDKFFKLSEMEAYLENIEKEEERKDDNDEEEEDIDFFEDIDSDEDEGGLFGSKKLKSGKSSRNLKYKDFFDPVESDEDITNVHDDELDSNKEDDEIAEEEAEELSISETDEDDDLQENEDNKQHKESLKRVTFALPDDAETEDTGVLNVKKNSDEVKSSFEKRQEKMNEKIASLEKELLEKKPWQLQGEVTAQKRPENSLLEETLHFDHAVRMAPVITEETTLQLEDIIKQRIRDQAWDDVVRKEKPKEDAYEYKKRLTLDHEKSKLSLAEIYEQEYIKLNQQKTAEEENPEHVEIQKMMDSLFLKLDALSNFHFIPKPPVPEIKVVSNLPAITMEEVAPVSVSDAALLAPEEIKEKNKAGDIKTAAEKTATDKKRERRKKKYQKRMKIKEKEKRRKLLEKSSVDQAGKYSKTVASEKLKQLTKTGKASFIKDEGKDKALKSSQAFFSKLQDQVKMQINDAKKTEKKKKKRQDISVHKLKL
UniProt Q9UNW1: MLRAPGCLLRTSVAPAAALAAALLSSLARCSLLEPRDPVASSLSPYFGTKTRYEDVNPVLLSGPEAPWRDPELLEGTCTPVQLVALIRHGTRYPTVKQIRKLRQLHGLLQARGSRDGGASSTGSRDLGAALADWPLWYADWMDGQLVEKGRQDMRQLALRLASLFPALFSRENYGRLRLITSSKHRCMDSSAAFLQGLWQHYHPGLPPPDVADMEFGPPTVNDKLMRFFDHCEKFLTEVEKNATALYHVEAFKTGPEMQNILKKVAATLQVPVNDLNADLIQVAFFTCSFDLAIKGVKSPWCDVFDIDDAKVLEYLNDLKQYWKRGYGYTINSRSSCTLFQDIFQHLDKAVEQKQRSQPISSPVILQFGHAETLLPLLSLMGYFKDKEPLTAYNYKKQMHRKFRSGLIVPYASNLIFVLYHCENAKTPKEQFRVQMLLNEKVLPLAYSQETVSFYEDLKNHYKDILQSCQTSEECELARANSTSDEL
UniProt P50219: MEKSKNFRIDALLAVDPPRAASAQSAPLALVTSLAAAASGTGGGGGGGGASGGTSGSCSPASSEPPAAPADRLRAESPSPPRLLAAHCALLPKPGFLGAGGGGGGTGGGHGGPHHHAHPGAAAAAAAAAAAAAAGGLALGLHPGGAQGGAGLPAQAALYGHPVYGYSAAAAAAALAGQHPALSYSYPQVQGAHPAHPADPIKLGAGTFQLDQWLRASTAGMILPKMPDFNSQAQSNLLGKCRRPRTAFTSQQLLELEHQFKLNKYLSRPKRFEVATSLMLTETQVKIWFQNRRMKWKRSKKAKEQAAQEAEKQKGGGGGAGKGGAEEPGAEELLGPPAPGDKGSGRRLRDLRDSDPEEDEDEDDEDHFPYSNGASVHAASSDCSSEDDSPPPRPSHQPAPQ
UniProt Q03111: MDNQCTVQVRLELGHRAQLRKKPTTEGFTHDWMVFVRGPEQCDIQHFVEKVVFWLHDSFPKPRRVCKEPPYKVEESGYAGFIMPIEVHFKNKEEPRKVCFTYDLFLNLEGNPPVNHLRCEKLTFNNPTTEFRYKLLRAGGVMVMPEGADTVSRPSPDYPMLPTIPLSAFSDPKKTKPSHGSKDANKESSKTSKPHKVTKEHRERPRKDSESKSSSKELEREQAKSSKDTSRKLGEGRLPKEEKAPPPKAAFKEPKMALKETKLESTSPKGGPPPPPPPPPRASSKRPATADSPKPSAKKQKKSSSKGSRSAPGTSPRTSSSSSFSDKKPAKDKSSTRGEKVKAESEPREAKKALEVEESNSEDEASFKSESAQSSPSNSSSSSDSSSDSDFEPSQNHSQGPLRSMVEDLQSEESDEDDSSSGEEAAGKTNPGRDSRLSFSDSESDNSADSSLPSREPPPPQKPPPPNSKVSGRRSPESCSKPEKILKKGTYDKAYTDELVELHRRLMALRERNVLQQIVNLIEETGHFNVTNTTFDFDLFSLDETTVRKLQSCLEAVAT
UniProt Q6WCQ1: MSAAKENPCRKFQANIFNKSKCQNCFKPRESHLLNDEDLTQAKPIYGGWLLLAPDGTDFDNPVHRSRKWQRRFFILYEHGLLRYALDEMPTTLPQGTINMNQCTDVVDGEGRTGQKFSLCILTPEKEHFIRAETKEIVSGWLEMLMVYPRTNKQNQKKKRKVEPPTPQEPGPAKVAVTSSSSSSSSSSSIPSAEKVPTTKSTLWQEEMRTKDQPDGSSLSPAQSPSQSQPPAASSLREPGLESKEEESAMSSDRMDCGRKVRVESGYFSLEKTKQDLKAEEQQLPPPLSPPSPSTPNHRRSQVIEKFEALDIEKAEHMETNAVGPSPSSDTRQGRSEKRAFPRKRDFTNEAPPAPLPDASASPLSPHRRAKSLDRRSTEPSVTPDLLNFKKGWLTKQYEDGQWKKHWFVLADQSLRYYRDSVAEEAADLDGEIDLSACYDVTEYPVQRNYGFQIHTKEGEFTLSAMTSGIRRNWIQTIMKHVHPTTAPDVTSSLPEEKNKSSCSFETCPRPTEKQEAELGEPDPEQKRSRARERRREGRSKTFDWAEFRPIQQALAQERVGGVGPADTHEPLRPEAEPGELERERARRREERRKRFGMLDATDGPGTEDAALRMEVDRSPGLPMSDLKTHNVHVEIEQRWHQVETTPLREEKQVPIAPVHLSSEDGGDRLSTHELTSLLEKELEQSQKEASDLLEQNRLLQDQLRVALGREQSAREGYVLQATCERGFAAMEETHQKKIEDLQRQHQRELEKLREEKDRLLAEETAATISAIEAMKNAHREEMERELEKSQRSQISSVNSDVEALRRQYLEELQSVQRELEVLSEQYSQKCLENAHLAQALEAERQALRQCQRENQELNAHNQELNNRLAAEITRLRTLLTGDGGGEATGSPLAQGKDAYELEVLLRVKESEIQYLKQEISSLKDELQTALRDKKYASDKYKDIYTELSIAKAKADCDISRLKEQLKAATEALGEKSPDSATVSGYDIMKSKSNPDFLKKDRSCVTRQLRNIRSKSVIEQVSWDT
UniProt O95297: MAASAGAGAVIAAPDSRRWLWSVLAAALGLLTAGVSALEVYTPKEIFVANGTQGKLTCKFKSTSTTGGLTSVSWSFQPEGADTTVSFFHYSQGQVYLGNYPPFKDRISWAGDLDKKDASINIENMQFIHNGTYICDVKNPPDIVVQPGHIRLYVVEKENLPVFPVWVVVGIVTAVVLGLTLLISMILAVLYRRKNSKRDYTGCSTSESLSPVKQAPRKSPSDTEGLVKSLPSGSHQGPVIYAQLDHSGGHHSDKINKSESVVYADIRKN
UniProt Q9UHC7: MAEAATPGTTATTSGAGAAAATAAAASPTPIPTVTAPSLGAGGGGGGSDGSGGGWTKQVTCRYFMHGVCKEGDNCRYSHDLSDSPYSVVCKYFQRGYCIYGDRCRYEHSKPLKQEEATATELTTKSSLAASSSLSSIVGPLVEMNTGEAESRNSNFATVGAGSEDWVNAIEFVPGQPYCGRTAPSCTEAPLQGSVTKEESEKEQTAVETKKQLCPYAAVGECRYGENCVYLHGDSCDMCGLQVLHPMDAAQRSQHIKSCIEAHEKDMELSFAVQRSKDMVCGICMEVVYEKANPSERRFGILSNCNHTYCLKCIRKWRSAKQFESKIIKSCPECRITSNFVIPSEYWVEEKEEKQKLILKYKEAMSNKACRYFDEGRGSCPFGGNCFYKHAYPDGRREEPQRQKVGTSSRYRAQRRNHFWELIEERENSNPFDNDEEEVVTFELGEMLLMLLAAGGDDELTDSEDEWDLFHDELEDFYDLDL
UniProt Q96EY8: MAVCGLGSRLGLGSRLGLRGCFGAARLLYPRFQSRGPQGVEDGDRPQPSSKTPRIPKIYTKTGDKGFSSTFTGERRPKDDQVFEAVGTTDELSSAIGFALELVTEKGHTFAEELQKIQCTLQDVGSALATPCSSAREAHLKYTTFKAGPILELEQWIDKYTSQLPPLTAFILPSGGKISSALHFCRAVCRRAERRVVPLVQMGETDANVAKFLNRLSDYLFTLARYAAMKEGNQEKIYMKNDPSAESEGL
UniProt P10620: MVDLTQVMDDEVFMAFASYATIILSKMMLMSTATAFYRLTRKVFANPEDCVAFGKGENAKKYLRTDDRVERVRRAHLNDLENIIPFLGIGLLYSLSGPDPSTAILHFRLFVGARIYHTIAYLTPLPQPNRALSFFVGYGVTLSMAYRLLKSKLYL

compound: C1CN(CCC1(CC2=CC=C(C=C2)Cl)N)C3=NC=NC4=C3C=CN4; assay: log2 fold change, soluble protein after heating vs DMSO (PISA); higher = thermal stabilisation; K562 lysate, 10 uM; active = over 0.2 and 3.5 SD of the protein, either way, in both replicates (recomputed)
In short: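 K562 pellets were dounce-homogenised in PBS pH 7.4 containing 1 mM MgCl2, and the crude extract, at 1 mg/mL protein, was exposed to 10 μM compound for 30 min. Aliquots were heated for 3 min across 48°C-58°C, pooled, brought to 0.5% NP-40 at 4°C and spun at 21,000xg for 90 min, with the supernatant taken as soluble protein. TMTpro 16plex LC-MS/MS with equalised channel sums quantified that protein. Values are log-two fold changes in thermal stability relative to solvent controls, taken from duplicates.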

log2 fold change, inactive:
MOB1B isoform 2 (UniProt Q7L9L4) 0.032
MINK1 (UniProt Q8N4C8) -0.037
MKRN2 (UniProt Q9H000) 0.028
MIF (UniProt P14174) 0.032
MOGS (UniProt Q13724) 0.009
MICOS10 (UniProt Q5TGZ0) 0.051
MICB, A0A140T979 0.275
MMTAG2 (UniProt Q9BU76) -0.046
MPST isoform 2 (UniProt P25325) 0.036
MRPL14 (UniProt Q6P1L8) 0.027
MRPL23 (UniProt Q16540) 0.009
MGME1 (UniProt Q9BQP7) -0.015
MRM3 (UniProt Q9HC36) 0.006
MLXIP (UniProt Q9HAP2) -0.01
MPP6 (UniProt Q9NZW5) 0.005
MMUT (UniProt P22033) 0.052
MKLN1 (UniProt Q9UL63) -0.009
MPHOSPH10 (UniProt O00566) 0.031
MOCS1 isoform 8 (UniProt Q9NZB8) 0.183
MOB2 isoform 3 (UniProt Q70IA6) -0.015
MORF4L1 isoform 2 (UniProt Q9UBU8) -0.01
MINPP1 (UniProt Q9UNW1) -0.027
MNX1 (UniProt P50219) 0.053
MLLT1 (UniProt Q03111) -0.006
MRPL19 (UniProt P49406) 0.005
MPRIP isoform 2 (UniProt Q6WCQ1) -0.016
MOCS3 (UniProt O95396) -0.07
MICAL3 (UniProt Q7RTP6) 0.039
MOB3A (UniProt Q96BX8) 0.014
MMADHC (UniProt Q9H3L0) 0.01
MPZL1 (UniProt O95297) -0.04
MIS12 (UniProt Q9H081) 0.031
MPLKIP (UniProt Q8TAP9) -0.019
MKRN1 (UniProt Q9UHC7) -0.009
MMAB (UniProt Q96EY8) 0.03
MON1B (UniProt Q7L1V2) 0.04
MGST1 (UniProt P10620) 0.089
MLF2 (UniProt Q15773) 0.058

At a glance, part of the list above:
log2 fold change, inactive:
MNX1 (UniProt P50219) 0.053
MLLT1 (UniProt Q03111) -0.006
MRPL19 (UniProt P49406) 0.005
MPRIP isoform 2 (UniProt Q6WCQ1) -0.016
MOCS3 (UniProt O95396) -0.07
MICAL3 (UniProt Q7RTP6) 0.039
MOB3A (UniProt Q96BX8) 0.014
MMADHC (UniProt Q9H3L0) 0.01
MPZL1 (UniProt O95297) -0.04
MIS12 (UniProt Q9H081) 0.031
MPLKIP (UniProt Q8TAP9) -0.019
